Results published in article PMC12040169 (PLOS Biology, 2025).
Read-outs that look alike come from different tables or passages of the source. This is one part of the list.

System: T1, CTL2-GFP (C. trachomatis L2/434/Bu, GFP-expressing)
T1 construct: L2/434/Bu, GFP-expressing
Parameters: species or system HeLa; Intracellular C. trachomatis growth in HeLa cells, bulk GFP fluorescence relative to DMSO
Details: bulk GFP, single well, 28.5 h, 10 µM, inhibitor

Structure (SMILES) | % of control remaining | % of control remaining (Bulk GFP fluorescence)
COc1ccccc1C1(O)CCCC2CN(C(C)=O)CC21 (centres unmarked) [CBK283134] | 88.0574% | –
CCOC(=O)c1cccnc1-c1cncnc1 [CBK149236] | 92.4861% | –
CC(=O)c1c(C)[nH]c(C(=O)N2CCN(C3CCN(C)CC3)CC2)c1C [CBK149098] | 94.5146% | –
COc1ccc(Cl)cc1S(=O)(=O)N1CCCC(C(=O)NCc2ccccn2)C1 (centres unmarked) [CBK269761] | 107.48% | –
CNC(=O)c1cccnc1N1CCN(CCCC(c2ccc(F)cc2)c2ccc(F)cc2)CC1 [CBK025309C] | 109.932% | –
O=c1[nH]c2cc(Cl)c(Br)nc2[nH]1 [CBK026531] | 122.731% | –
O=C(NC1CCOCC1)c1n[nH]c2c1CCC2 [CBK174626] | 97.6887% | –
CCCS(=O)(=O)N1CCN(C(=O)c2cccnc2)CC1 [CBK264239] | 140.147% | –
CN(C(=O)CN1CCN(c2cc(-c3cccc([N+](=O)[O-])c3)ncn2)CC1)c1ccccc1 [CBK091137] | 123.319% | –
CCn1c2ccccc2c2cc(/C=N/N3CCN(c4ccccc4OC)CC3)ccc21 [CBK101168] | 100% | –
COc1ccc([C@@]23CC[C@@H](NC(=O)Nc4ccc(F)c(F)c4)C[C@@H]2N(C)CC3)cc1C#N [CBK067952T] | 63.7796% | –
O=C(O)C1C2CC(c3ccccc3)C(C2)C1C(=O)O (centres unmarked) [CBK287147] | 94.1362% | –
CC1CC(=O)c2cn/c(=N\c3ccccc3)[nH]c2C1 (centres unmarked) [CBK287884] | 109.929% | –
CCN(CC)C(=O)c1cn(CCC#N)nc1-c1cccc(OC)c1 [CBK305941] | 128.207% | –
CCC1CCC2(CC1)NC(=O)N(Cc1cc(-c3ccccc3)on1)C2=O (centres unmarked) [CBK294977] | 88.4833% | –
CC1(C)Cc2c(ccc3ccccc23)C(CCN2CCCCC2)=N1 [CBK261746] | 94.4919% | –
Cn1nccc1CNc1ncn(CC(=O)N2CCCCCC2)n1 [CBK306454] | 118.956% | –
OCc1ccc(CN2Cc3nc[nH]c3C[C@H]2c2nc(Cc3ccccc3)no2)o1 [CBK288955] | 119.734% | –
CC1CCCCN1S(=O)(=O)c1ccc(NC(=O)CCn2cnc3ccccc3c2=O)cc1 (centres unmarked) [CBK268495] | 146.682% | –
CCOc1cccc(NC(=O)/C(C#N)=C\c2cc(C)n(-c3cccc(C(=O)O)c3)c2C)c1 [CBK263186] | 99.5464% | –
O=C(NCc1ccccn1)c1cnn2c(C(F)(F)F)cc(-c3cccs3)nc12 [CBK268195] | 144.852% | –
CCOC(=O)C(NC(=O)c1cc[nH]n1)c1cccc(C)c1C (centres unmarked) [CBK304131] | 98.6223% | –
Cc1nc2c(c(=O)[nH]1)CC[C@@H]1CN(C(=O)C3CCCCC3)C[C@H]21 [CBK284407] | 99.5373% | –
Cn1c2ccccc2c2nnc(SCc3ccc4nonc4c3)nc21 [CBK267515] | 128.24% | –
COc1ccccc1Cn1nc2nnc(-c3ccc(F)cc3)c(-c3ccc(F)cc3)n2c1=O [CBK286184] | 94.2951% | –
Cc1scnc1CN1CCn2nc(C(O)Cc3ccccc3)cc2C1 (centres unmarked) [CBK307612] | 173.995% | –

One compound at a time, from the list above:
`CC(=O)c1c(C)[nH]c(C(=O)N2CCN(C3CCN(C)CC3)CC2)c1C` [CBK149098] is entered as % of control remaining: 94.5146%
`CN(C(=O)CN1CCN(c2cc(-c3cccc([N+](=O)[O-])c3)ncn2)CC1)c1ccccc1` [CBK091137] is entered as % of control remaining: 123.319%

More compounds.

Structure (SMILES) | % of control remaining | % of control remaining (Bulk GFP fluorescence)
C/C(=N\N1CCN(Cc2cccc3ccccc23)CC1)c1ccncc1 [CBK263574] | 97.1379% | –
Nc1ncc(-c2ccc(C(=O)N3CCOCC3)cc2)cc1C(=O)Nc1ccncc1 [CBK160202] | 105.931% | –
O=C(Nc1cccnc1)c1ccc(NC(=O)C2OCCc3ccccc32)cc1 (centres unmarked) [CBK269963] | 123.641% | –
CCC(CNC(=O)c1ccoc1C)N1CCCC1 (centres unmarked) [CBK304798] | 102.518% | –
O=C(O)c1ccc2c(c1)C(=O)N(c1ccc(-c3ccc(N4C(=O)c5ccc(C(=O)O)cc5C4=O)cc3)cc1)C2=O [CBK261187] | 112.282% | –
CCc1cc2c(NC(C(=O)O)C(C)C)ncnc2s1 (centres unmarked) [CBK265349] | 100.416% | –
Cc1ccc(NC(=O)NC(=O)C2CCN(CCCc3ccc(F)cc3)CC2)cc1Cl [CBK035057] | 117.834% | –
CN1CCN(CCC(=O)N/N=C/c2ccccc2O)CC1 [CBK261497] | 114.732% | –
Cc1nc(C2CCN(Cc3cccc(F)c3)CC2)ncc1C(=O)Nc1ccc(F)cc1 [CBK285668] | 103.223% | –
Clc1ccc(COc2nccnc2OC2CCN(CC3CC3)CC2)cc1Cl [CBK083123T] | – | 85.3083%
CC1CCc2c(sc(NC(=O)c3cccs3)c2C(=O)N(C)C)C1 (centres unmarked) [CBK307100] | 126.362% | –
CC(C)c1cc(C(=O)N(CCO)CC2CC3C=CC2C3)n(C)n1 (centres unmarked) [CBK282164] | 115.306% | –
Cc1ncsc1C(=O)N1CCN(Cc2ccco2)C[C@@H]1C(C)C [CBK285486] | 103.389% | –
CC1CCCC(C)N1c1nn(C)c(=O)[nH]1 (centres unmarked) [CBK019114] | 127.33% | –
O=C(CNC(=O)c1ccccc1)OCC(=O)c1ccc(Cl)c(Cl)c1 [CBK261611] | 102.825% | –
O=C1N[C@]2(CCc3ccccc31)CN(Cc1ccsc1)C[C@H]2CO [CBK284793] | 107.698% | –
COc1ccc(Oc2nccnc2N2CCN(CCc3ccccn3)CC2)cc1OC [CBK083067T] | 111.578% | –
Cc1[nH]c2ccc(CNC(=O)Cn3ccnc3C(C)C)cc2c1C [CBK281540] | 106.241% | –
CCN(CC(=O)NCc1ccc(F)cc1)S(=O)(=O)c1c(C)n[nH]c1C [CBK306074] | 129.609% | –
Clc1ccc(COc2nccnc2OCCOc2ccccc2)cc1Cl [CBK161853] | 108.078% | –
CCCCOc1ccc(C(=O)N/C(=C/c2ccc(OC)cc2)C(=O)O)cc1 [CBK300490] | 147.301% | –
CCOC(=O)C1CCN(C(=O)c2c(-c3ccccc3)noc2C)CC1 [CBK158704] | 122.56% | –
Cc1ccc(C)c(OCC(=O)Nc2ccccc2C(=O)N2CCN(C)CC2)c1 [CBK269924] | 111.939% | –
COc1cc(CNC(C)c2ccccc2)ccc1OCC(N)=O (centres unmarked) [CBK269982C] | 141.358% | –
Cn1ncc2c1CCCN(C(=O)Cc1ccc(Cl)cc1)C2 [CBK285231] | 122.662% | –
O=C(N[C@@H](Cn1cc(F)c(=O)[nH]c1=O)C(=O)O)C1CCCC1 [CBK289660] | 108.928% | –

Structure (SMILES) | % of control remaining | % of control remaining (Bulk GFP fluorescence)
CC(=O)Nc1ccc(CNC(=O)c2cccnc2OCC(F)(F)F)cc1 [CBK305682] | 92.8295% | –
Cc1c(C(=O)NC(=S)Nc2ccc(O)c(-c3nc4ccccc4s3)c2)oc2ccccc12 [CBK264223] | 114.262% | –
COCCN1C(=O)C2(CC(=O)N(CC3CCCCC3)C2=O)c2ccccc21 (centres unmarked) [CBK075355] | 100.349% | –
COc1ccc(C(=O)N2CCC3(CCCN(CCCn4c(=O)[nH]c5ccccc54)C3)C2)cc1OC (centres unmarked) [CBK132856] | 135.328% | –
Cc1ccc(C(=O)Nc2cccc(-n3c(C)nc4ccccc4c3=O)c2)cc1 [CBK287725] | 118.345% | –
COc1ccc(C)c2sc(NC(=O)c3sc(C)nc3C)nc12 [CBK287401] | 172.681% | –
CSCC1CCCN(C(=O)c2cc3ncc(CCO)cn3n2)C1 (centres unmarked) [CBK307256] | 149.527% | –
Cn1ncc(Cl)c1C1CCCCCN1C(=O)c1cccnc1 (centres unmarked) [CBK285146] | 132.91% | –
Cc1ccc(C(=O)N(Cc2nc(-c3ccc(Cl)cc3)no2)C(C)C)cc1[N+](=O)[O-] [CBK268422] | 108.604% | –
Brc1ccc(CSc2ncn[nH]2)cc1 [CBK027819] | 129.493% | –
Cc1[nH]c2c(C)ccc(C)c2c1CC(=O)N1[C@@H](c2ccccc2F)C[C@@H]2NC(=O)CCC[C@H]21 [CBK286011] | 133.261% | –
Cc1oc2ccc(NS(=O)(=O)c3ccccc3)cc2c1C(=O)O [CBK287071] | 108.111% | –
CC(=O)N1CCN(c2ccc(Oc3ncc(C(F)(F)F)cc3Cl)cc2)CC1 [CBK161650] | 93.776% | –
COc1ccc(S(=O)(=O)N2CCC(C(=O)O)CC2)cc1C(=O)O [CBK092181] | 116.47% | –
Cc1c(C(N)=O)sc2nc(C(F)(F)F)cc(N)c12 [CBK061693] | 99.0258% | –
Cc1cc(C(=O)N(C)CC2(C)COC2)nc2ccccc12 [CBK281956] | 135.243% | –
CC(=O)Nc1ccc(NCc2nc(C(C)C)no2)c(C(F)(F)F)c1 [CBK305743] | 99.1443% | –
COc1ccc(NC(=O)C2CC(=O)NC3=C2C(=O)CC(c2ccco2)C3)cc1 (centres unmarked) [CBK270282] | 114.063% | –
CC(=O)Nc1ccc(NC(=O)CCCC(=O)O)cc1 [CBK260984] | 118.942% | –
O=c1[nH]c2ncc(-c3cccc4ncccc34)nc2n1Cc1ccccc1 [CBK064245] | 105.606% | –
N=C1/C(=C/c2cn(Cc3ccccc3)c3ccccc23)C(=O)N=C2SC(COc3ccccc3)=NN12 [CBK264150] | 90.509% | –
Cc1ccc(CNc2nc3c(c(=O)[nH]c(=O)n3C)n2CC(O)COC(C)C)cc1 (centres unmarked) [CBK139849] | 148.247% | –
Cc1nc(N/C(=N/C(=O)c2ccccc2)NC(=O)c2ccccc2)nc2ccccc12 [CBK262529] | 113.915% | –
O=[N+]([O-])c1ccc(N2CCN(CCO)CC2)cc1NCc1ccccc1 [CBK042200] | 115.973% | –
Cc1cc2nc(N3CCN(C(=O)c4ccc(C#N)cc4)CC3)sc2cc1C [CBK287737] | 117.371% | –

Entries shown so far containing an aryl methoxy group:
Structure (SMILES) | % of control remaining | % of control remaining (Bulk GFP fluorescence)
COc1ccccc1C1(O)CCCC2CN(C(C)=O)CC21 (centres unmarked) [CBK283134] | 88.0574% | –
COc1ccc(Cl)cc1S(=O)(=O)N1CCCC(C(=O)NCc2ccccn2)C1 (centres unmarked) [CBK269761] | 107.48% | –
CCn1c2ccccc2c2cc(/C=N/N3CCN(c4ccccc4OC)CC3)ccc21 [CBK101168] | 100% | –
COc1ccc([C@@]23CC[C@@H](NC(=O)Nc4ccc(F)c(F)c4)C[C@@H]2N(C)CC3)cc1C#N [CBK067952T] | 63.7796% | –
CCN(CC)C(=O)c1cn(CCC#N)nc1-c1cccc(OC)c1 [CBK305941] | 128.207% | –
COc1ccccc1Cn1nc2nnc(-c3ccc(F)cc3)c(-c3ccc(F)cc3)n2c1=O [CBK286184] | 94.2951% | –
COc1ccc(Oc2nccnc2N2CCN(CCc3ccccn3)CC2)cc1OC [CBK083067T] | 111.578% | –
CCCCOc1ccc(C(=O)N/C(=C/c2ccc(OC)cc2)C(=O)O)cc1 [CBK300490] | 147.301% | –
COc1cc(CNC(C)c2ccccc2)ccc1OCC(N)=O (centres unmarked) [CBK269982C] | 141.358% | –
COc1ccc(C(=O)N2CCC3(CCCN(CCCn4c(=O)[nH]c5ccccc54)C3)C2)cc1OC (centres unmarked) [CBK132856] | 135.328% | –
COc1ccc(C)c2sc(NC(=O)c3sc(C)nc3C)nc12 [CBK287401] | 172.681% | –
COc1ccc(S(=O)(=O)N2CCC(C(=O)O)CC2)cc1C(=O)O [CBK092181] | 116.47% | –
COc1ccc(NC(=O)C2CC(=O)NC3=C2C(=O)CC(c2ccco2)C3)cc1 (centres unmarked) [CBK270282] | 114.063% | –
